# Test results published in PMC7567837.
# The chains behind the UniProt entries cited, without tags or fusion partners.
# UniProt Q05397: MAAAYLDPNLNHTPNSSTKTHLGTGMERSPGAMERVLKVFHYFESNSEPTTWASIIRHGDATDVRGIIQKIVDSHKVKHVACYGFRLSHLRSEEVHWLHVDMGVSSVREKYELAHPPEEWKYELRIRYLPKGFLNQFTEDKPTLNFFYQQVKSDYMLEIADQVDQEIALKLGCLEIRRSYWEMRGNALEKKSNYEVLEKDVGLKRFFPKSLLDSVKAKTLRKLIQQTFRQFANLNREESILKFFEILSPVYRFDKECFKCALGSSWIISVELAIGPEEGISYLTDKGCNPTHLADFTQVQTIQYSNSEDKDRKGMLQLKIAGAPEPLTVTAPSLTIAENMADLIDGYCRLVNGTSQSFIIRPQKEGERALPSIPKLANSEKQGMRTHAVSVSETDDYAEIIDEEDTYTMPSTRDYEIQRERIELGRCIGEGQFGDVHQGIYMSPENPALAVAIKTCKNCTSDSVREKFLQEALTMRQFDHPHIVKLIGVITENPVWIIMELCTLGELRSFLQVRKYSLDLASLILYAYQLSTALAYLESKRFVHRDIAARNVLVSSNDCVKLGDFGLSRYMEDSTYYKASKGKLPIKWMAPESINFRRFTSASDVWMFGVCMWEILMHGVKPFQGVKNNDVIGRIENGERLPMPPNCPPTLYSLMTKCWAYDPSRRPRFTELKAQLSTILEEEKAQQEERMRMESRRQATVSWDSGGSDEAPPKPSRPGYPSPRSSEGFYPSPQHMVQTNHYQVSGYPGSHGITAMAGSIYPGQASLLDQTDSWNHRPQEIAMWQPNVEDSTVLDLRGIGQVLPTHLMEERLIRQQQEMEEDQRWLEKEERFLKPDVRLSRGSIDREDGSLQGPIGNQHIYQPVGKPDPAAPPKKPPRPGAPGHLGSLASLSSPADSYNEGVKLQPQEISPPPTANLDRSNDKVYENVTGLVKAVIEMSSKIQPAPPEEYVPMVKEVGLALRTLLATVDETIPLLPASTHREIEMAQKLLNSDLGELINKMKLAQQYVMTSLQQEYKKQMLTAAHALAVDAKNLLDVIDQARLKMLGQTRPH
# UniProt P21333: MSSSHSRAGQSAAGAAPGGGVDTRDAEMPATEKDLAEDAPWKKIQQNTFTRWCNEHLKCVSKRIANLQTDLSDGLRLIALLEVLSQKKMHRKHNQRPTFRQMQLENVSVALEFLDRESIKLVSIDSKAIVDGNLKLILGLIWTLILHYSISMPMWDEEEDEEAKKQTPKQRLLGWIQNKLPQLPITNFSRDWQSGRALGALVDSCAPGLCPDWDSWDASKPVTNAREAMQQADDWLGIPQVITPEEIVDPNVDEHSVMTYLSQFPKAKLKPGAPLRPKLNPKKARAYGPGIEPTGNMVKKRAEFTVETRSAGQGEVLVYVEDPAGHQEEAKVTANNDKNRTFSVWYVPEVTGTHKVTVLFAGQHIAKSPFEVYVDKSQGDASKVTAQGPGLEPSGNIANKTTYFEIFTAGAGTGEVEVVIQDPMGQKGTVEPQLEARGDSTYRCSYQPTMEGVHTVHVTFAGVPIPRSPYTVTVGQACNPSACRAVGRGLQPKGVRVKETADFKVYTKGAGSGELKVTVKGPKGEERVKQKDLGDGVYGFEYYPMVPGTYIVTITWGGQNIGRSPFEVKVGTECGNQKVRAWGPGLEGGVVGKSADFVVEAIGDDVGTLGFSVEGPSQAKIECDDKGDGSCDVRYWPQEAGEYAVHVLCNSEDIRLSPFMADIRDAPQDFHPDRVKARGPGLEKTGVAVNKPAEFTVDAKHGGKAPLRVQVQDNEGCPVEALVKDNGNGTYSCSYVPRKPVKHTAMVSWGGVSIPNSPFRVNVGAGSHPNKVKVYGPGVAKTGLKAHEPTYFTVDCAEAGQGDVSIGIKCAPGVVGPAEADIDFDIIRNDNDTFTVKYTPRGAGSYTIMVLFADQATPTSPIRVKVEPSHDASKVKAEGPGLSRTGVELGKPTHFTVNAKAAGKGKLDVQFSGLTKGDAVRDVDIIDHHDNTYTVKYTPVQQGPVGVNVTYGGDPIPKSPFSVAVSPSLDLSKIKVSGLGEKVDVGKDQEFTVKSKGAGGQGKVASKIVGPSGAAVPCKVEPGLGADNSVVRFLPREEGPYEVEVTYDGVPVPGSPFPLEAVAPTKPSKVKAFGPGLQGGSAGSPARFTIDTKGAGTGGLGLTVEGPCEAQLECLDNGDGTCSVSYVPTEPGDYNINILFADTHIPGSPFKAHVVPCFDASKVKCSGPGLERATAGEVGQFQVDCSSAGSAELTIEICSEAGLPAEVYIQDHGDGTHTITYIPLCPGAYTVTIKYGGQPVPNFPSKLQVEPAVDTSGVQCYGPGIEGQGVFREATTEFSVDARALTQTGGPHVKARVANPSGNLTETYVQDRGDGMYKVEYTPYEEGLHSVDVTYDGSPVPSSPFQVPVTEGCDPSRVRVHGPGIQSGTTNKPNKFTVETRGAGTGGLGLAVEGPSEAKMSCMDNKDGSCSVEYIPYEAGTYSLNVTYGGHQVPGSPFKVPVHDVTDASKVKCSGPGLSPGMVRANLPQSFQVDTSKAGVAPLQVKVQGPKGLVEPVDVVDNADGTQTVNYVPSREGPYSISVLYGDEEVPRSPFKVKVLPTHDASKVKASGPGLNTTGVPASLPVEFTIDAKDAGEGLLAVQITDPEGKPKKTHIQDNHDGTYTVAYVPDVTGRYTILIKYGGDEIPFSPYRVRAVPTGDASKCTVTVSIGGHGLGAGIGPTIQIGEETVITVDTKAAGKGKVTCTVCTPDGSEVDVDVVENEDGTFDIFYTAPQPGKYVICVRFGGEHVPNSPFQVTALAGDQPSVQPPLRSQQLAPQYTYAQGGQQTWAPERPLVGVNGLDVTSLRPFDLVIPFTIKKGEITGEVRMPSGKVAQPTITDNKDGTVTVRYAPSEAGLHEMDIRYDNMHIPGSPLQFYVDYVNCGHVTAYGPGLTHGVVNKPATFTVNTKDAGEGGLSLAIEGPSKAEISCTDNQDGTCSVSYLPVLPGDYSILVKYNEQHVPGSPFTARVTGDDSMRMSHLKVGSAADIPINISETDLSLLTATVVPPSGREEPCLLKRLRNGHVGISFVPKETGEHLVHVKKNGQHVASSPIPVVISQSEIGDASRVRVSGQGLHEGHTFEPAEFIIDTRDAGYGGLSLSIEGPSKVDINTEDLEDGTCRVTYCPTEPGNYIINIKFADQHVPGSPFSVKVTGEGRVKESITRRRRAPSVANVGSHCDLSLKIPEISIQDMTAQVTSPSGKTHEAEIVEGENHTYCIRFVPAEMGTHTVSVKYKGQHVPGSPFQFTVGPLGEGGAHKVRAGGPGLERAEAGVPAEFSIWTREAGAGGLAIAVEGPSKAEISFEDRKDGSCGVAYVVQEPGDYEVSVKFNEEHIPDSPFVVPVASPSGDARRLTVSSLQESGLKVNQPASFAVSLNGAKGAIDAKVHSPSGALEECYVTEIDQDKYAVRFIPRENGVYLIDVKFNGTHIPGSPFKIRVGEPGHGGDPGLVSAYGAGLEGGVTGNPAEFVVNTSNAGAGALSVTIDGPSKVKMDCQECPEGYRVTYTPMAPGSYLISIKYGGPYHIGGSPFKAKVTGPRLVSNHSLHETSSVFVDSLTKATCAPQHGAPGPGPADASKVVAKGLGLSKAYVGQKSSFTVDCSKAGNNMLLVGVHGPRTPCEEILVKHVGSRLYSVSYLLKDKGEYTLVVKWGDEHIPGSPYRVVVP
# UniProt P11940: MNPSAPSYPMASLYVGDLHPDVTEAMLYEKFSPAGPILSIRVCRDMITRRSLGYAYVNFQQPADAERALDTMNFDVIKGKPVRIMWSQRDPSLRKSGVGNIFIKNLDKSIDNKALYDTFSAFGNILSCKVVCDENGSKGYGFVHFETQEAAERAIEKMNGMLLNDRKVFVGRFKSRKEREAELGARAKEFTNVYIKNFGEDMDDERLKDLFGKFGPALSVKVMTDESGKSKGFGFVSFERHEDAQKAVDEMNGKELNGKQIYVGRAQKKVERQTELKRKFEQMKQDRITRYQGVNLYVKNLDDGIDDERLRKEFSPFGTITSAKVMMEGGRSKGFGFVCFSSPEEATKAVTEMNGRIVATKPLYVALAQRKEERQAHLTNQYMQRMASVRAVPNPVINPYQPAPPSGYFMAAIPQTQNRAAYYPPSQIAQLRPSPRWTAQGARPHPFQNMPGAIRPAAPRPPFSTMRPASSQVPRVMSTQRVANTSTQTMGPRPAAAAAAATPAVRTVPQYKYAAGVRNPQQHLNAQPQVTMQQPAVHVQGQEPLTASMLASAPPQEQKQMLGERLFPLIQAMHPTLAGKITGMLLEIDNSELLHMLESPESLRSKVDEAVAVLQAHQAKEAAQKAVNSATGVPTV
# UniProt P15311: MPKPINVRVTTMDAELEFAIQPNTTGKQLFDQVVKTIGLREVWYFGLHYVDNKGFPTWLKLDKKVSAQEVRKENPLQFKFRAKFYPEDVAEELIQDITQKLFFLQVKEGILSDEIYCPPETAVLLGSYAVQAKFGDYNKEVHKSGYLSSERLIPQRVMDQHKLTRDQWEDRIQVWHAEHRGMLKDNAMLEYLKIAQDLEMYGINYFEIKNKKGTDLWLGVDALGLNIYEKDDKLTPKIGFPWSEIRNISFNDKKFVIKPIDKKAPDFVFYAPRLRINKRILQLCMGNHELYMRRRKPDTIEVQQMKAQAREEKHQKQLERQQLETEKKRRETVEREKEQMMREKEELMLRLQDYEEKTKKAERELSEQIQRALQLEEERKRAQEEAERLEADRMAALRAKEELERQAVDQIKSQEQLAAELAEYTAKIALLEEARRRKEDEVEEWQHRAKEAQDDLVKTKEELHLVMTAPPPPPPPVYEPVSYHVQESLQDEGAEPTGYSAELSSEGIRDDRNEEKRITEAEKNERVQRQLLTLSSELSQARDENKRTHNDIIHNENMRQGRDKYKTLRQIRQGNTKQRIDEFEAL
# No constants are given. Whether binding was seen depends on the method and setting. Binding seen in cells or lysates may run through a third protein. Some binding calls cover weakened binding; strength is not graded here.
# Columns and labels:
# [1] = biological target: growth factor receptor-bound protein 7 (human (endogenous in GSU)) (UniProt Q14451); assay: co-IP; anti-GRB7 antibody (PA5-79323, 1.0 ug) on GSU cell lysate (50 mM Tris, 150 mM NaCl, 1% Triton-X100), overnight, protein G beads, immunoblots; endogenous proteins
# [2] = biological target: focal adhesion kinase (human (endogenous in MKN1, A549, GSU, HEK293)) (UniProt Q05397); assay: co-IP; anti-FAK antibody (AHO0502, 1.0 ug) on MKN1 and A549 cell lysates (50 mM Tris, 150 mM NaCl, 1% Triton-X100), overnight, protein G beads, immunoblots; endogenous proteins
# [3] = biological target: focal adhesion kinase (human (endogenous in MKN1, A549, GSU, HEK293)) (UniProt Q05397); assay: co-IP; anti-FAK antibody (AHO0502, 1.0 ug) on lysate of HEK293 cells transfected with the GRB7-myc/His construct, protein G beads, immunoblots
binding [2],Substance,other results
–,focal adhesion kinase (from UniProt Q05397 1-1052),binding [1]: binds
binds,filamin A (from UniProt P21333 1-2647),–
–,GRB7-myc/His (from UniProt Q14451 1-532),binding [3]: binds
binds,poly-A binding protein cytoplasmic 1 (from UniProt P11940 1-636),–
binds,Ezrin (from UniProt P15311 1-586),–
